# Source: the supplement of paper PMC3334620
# Whole data set: some 33,000 sequences, median “E-score (-0.5 to 0.5)” near -0.016, cut for the highest 2% near 0.3. The list shows a part of the results.
# Molecular target: T1, Yer184c (UniProt P39961)
# T1 sequence: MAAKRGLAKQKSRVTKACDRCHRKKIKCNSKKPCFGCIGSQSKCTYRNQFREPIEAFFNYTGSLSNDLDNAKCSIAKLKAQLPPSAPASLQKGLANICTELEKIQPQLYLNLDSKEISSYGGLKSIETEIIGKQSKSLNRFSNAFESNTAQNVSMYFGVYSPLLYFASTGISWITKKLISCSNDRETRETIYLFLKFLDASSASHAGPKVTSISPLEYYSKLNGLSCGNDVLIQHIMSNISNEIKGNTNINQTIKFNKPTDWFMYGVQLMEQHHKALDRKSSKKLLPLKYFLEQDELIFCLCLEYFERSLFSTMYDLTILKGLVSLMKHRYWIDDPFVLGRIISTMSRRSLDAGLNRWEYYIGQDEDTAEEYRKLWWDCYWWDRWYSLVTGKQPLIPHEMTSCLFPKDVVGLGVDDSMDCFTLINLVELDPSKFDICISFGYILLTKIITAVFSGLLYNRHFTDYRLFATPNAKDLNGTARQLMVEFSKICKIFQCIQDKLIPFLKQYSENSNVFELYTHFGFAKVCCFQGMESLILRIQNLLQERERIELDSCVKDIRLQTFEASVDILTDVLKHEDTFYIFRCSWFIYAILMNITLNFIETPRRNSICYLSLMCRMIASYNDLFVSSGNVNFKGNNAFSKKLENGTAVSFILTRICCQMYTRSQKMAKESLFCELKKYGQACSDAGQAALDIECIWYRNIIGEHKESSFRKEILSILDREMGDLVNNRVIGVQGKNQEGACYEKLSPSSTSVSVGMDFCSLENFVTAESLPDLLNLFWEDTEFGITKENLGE
# Assay: PBM E-score (8-mer binding enrichment) (E-score (-0.5 to 0.5)); higher = stronger / more preferred TF binding
# Details: protein concentration: 100 nM; construct: GST-full length
# Procedure: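 Universal 'all 10-mer' protein binding microarrays (Agilent AMADID 015681) probed with GST-tagged S. cerevisiae TFs (full-length or DBD) made by in vitro transcription/translation (PURExpress), about 100-200 nM. Bound TF was detected with fluorescent anti-GST. Each ungapped 8-mer (which stands for itself and its reverse complement) is scored by the PBM enrichment score (E-score), a modified Wilcoxon-Mann-Whitney statistic from -0.5 to +0.5, computed with the Universal PBM Analysis Suite. Scale: above 0.35 generally sequence-specific binding.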
row,Sequence,PBM E-score
1,GATAGGAC,-0.257
2,CAGCAATC,-0.0177
3,TGGTACCA,-0.0226
4,ACGACATG,-0.053
5,AAAACCCG,0.163
6,CTATTCAC,0.105
7,AAGAGTGT,-0.0038
8,CAAGAAGA,0.0276
9,AACATGAT,0.132
10,CACGAACC,-0.121
11,AAGCGATC,-0.0129
12,TAATCCTA,0.0918
13,AAACACAC,0.127
14,ACCTACAT,-0.0682
15,CGCAAGAG,-0.00655
16,ACGGTACT,-0.0252
17,GGATAGAC,0.0209
18,GGGGCTAC,-0.159
19,CCAAAGTC,-0.0544
20,ATGTGTCC,0.173
21,GGCTGGAA,-0.116
22,CGTTTTGC,0.0551
23,AACTAAGT,0.00148
24,CCCTGCAG,-0.189
25,CCTTCACG,-0.0411

row,Sequence,PBM E-score
1,GGCCAAGA,-0.0714
2,CGTGAGAG,-0.225
3,GCATTACA,-0.0231
4,CAAAAACC,0.182
5,CTCGCACA,-0.0367
6,GCTGGGGA,-0.303
7,CTGACAGC,-0.109
8,ACGATCAT,-0.0558
9,GGTACGAC,-0.189
10,CAGACAGA,-0.0319
11,CATCCCAA,0.0166
12,GCCGAGAC,0.327
13,CACTCCGC,-0.0284
14,ACTTTCAG,0.0817
15,GCACTCCA,-0.187
16,CATATCTC,-0.00517
17,CTCGATGC,-0.125
18,GGCTACTA,0.0546
19,AGCACACG,-0.11
20,AAAATAAC,0.014
21,CACGTGAA,-0.0117
22,TATGGAAA,0.179
23,CGGACATC,0.202
24,CGCCGAAA,0.293
25,CGCGGACC,0.215

row,Sequence,PBM E-score
1,GGTCAAGA,-0.107
2,AGTGGATC,-0.0609
3,ATATGGCG,-0.00201
4,CAGGGTAA,-0.154
5,CCTACTAG,-0.244
6,CAGGATCA,-0.0702
7,CGGGATCA,0.00237
8,AAGTACGT,-0.0382
9,ATCGCTTG,-0.245
10,AGCCCAAT,-0.0597
11,ACTTTTCA,-0.115
12,CCACTGGG,-0.153
13,CCTTTGTA,0.0705
14,AGGCAATC,-0.0694
15,GTCGGCAC,0.1
16,ACGAATGC,-0.12
17,ACAATAAC,0.161
18,CCGGCGAC,0.233
19,AGGGTTCC,-0.12
20,GCAACTCA,0.105
21,CCGCATCC,0.0202
22,TAGCCTGA,-0.0773
23,CTACCCAG,-0.167
24,CTGAAGCA,-0.00127
25,ACAAAAGG,0.00961

row,Sequence,PBM E-score
1,ATTATAGA,0.175
2,CACTTAGG,0.00498
3,CGGTTACG,0.148
4,CTCTTCGC,-0.0959
5,CAGGGGAG,-0.307
6,GGCCCTTA,-0.226
7,ACGTAATA,0.119
8,ATTTATTC,0.329
9,GGTACATA,0.0871
10,GATCGATA,-0.00181
11,CCACAGAA,0.00134
12,GAAAACGC,-0.0248
13,ATTGGGTA,-0.222
14,AACACGAT,0.128
15,AATCGCAC,-0.221
16,CTCATAGC,-0.262
17,ACTTGCCA,-0.078
18,GAATTTTA,0.219
19,AGGGGGAT,-0.362
20,ATGTGAGG,0.0347
21,ACTAGAAC,0.0948
22,GGAATGCA,0.0114
23,AGTTAGAT,-0.0565
24,AGAGACTG,-0.246
25,ATCACCGC,-0.12

# A stretch from the list above, for reference:
row,Sequence,PBM E-score
1,GGTCAAGA,-0.107
2,AGTGGATC,-0.0609
3,ATATGGCG,-0.00201
4,CAGGGTAA,-0.154
5,CCTACTAG,-0.244
6,CAGGATCA,-0.0702
7,CGGGATCA,0.00237
8,AAGTACGT,-0.0382
9,ATCGCTTG,-0.245
10,AGCCCAAT,-0.0597
11,ACTTTTCA,-0.115
12,CCACTGGG,-0.153
13,CCTTTGTA,0.0705
14,AGGCAATC,-0.0694
15,GTCGGCAC,0.1
16,ACGAATGC,-0.12
17,ACAATAAC,0.161
18,CCGGCGAC,0.233
19,AGGGTTCC,-0.12
20,GCAACTCA,0.105
21,CCGCATCC,0.0202
22,TAGCCTGA,-0.0773
23,CTACCCAG,-0.167
24,CTGAAGCA,-0.00127
25,ACAAAAGG,0.00961
1,ATTATAGA,0.175
2,CACTTAGG,0.00498
3,CGGTTACG,0.148
4,CTCTTCGC,-0.0959
5,CAGGGGAG,-0.307
6,GGCCCTTA,-0.226
7,ACGTAATA,0.119
8,ATTTATTC,0.329
9,GGTACATA,0.0871
10,GATCGATA,-0.00181
11,CCACAGAA,0.00134

# (cont.)

row,Sequence,PBM E-score
1,ACCGAGCA,0.225
2,ACTCGCCA,-0.102
3,GTTTATCA,0.239
4,ACGAGTTG,-0.0069
5,ACGCGTTA,-0.0576
6,ATTCTGCC,0.201
7,CAGAGACC,-0.251
8,AATAGAAG,-0.0313
9,TAGCAGGA,-0.149
10,AAGTTCTG,-0.0496
11,GGGCGAAA,0.138
12,AACCTCGG,0.25
13,GGTTAGAC,0.0649
14,CTTAGAAA,0.203
15,CTGCTCGC,-0.091
16,CTGGATAC,-0.0922
17,CGCGCGGA,0.171
18,CTCGCCTC,-0.252
19,CAAATCCC,-0.116
20,CTGTCCGA,0.24
21,AACAGGCT,-0.222
22,CACAAGAC,-0.166
23,CATATCCA,-0.172
24,ATGGATCA,-0.234
25,AAGCCTGG,-0.145

row,Sequence,PBM E-score
1,CCTGTGGC,-0.218
2,TAACTCTA,-0.102
3,GCGCTAGA,-0.0657
4,CAGAACAC,-0.252
5,AAGGTTCA,-0.0083
6,TGGCTTAA,0.175
7,TCGCTAGA,-0.0195
8,AAGAGTAT,-0.0392
9,AGCACAGC,-0.0164
10,AGGCCGAC,0.0134
11,TTGGCCAA,-0.324
12,AGCTGTGG,-0.255
13,GACTTCGC,0.0456
14,CGCTGTTC,-0.0698
15,CTGTTTGA,0.0151
16,AATGTAGG,-0.29
17,CCCTAGAC,-0.189
18,AGTCCCTG,-0.37
19,AGTTTTAA,0.159
20,AGGCTACG,-0.268
21,ACCGAACG,0.235
22,GCGCGAAA,0.222
23,GTAAAAAC,0.0726
24,CCTAAACG,0.079
25,GCTCCCTA,-0.376

row,Sequence,PBM E-score
1,GCTCGGAA,0.334
2,ACACTCTG,-0.101
3,CCGCCACC,-0.219
4,ACTCTGCG,0.013
5,ATAGCGCG,0.0679
6,CTAATCCA,-0.0737
7,GAACTATC,-0.0632
8,CAGAACCG,0.0238
9,TAGCCCAA,-0.184
10,GTGCACAC,-0.194
11,CAACAAAC,0.141
12,AGACTCGA,-0.0489
13,ATTTGGCG,0.00852
14,GGTACCAC,-0.0264
15,GCATAAGA,0.124
16,CTCGGCTA,0.352
17,CTCTGGAC,-0.0855
18,ATAGTACC,0.0487
19,ATTGCCAG,-0.0205
20,AATACCAC,-0.128
21,AATTTCGG,0.284
22,ACTGTCCT,0.00102
